In publication PMC7892437 (Frontiers in Pharmacology, 2021):
Like-named read-outs stand apart in the source and are kept apart here.

Legend:
[1] = tested on: VSV-SARS-CoV-2-Sdel18 pseudovirus; format: cell-based
[2] = tested on: SARS-CoV-2 BetaCoV/Shenzhen/SZTH-003/2020 strain; format: cell-based

CN1C[C@@H]2c3ccccc3Oc3ccc(Cl)cc3[C@H]2C1.Cl (racemic) [Asenapine (hydrochloride)]
IC50 ([1]; read-out: Co-treatment IC50): 28.1 µM
IC50 ([1]; read-out: IC50): 12.9 µM
IC50 ([1]; read-out: Pre-treatment IC50): 17.7 µM
IC50 [2]: 16.7 µM
inhibitory effect relative to Chloroquine diphosphate [2]: slightly less effective
cytotoxicity compared with the other selected drugs (BHK21-hACE2 cells): lowest cytotoxicity
